From article PMC6281677 come the findings set out here.

No constants are given. Whether binding was seen depends on the method and setting. In cells and extracts the contact can be indirect. A result given as binding can be weak or reduced; the word gives no strength.

Assay [1] deals with FLS2 with Lysine 1120 mutated to Arginine, GFP-tagged (Arabidopsis thaliana) (UniProt Q9FL28). Nature of the assay: co-IP.
The target of assay [2] is …-… 2 (FLS2) receptor, GFP-tagged (Arabidopsis thaliana) (UniProt Q9FL28). The assay is described as follows: co-IP; anti-GFP beads (Chromotek) on total protein of N. benthamiana leaves transiently co-expressing the GFP-tagged FLS2 protein and the tagged partner; leaves treated with MgCl2 or flg22 (1 uM, 10 min in the legends; 5 uM, 15 min in the methods); extraction buffer 50 mM HEPES pH 7.5, 1 mM EDTA, 0.5% Triton X-100, 1 mM DTT; on ice 30 min; blots with anti-myc, anti-HA, anti-GFP; for FLS2 with BIK1 also with SUMO1-HA co-expressed, with or without Desi3a-HA, in the presence of flg22.

In the case of “deSUMOylating enzyme Desi3a, HA-tagged (from UniProt A0A1P8AU07)”, the binding result in assay [1] and in assay [2] was “binds” each time.
